In paper PMC4652285 one finds binding data, which are given here for two molecules.

No constants are given. Whether binding was seen depends on the method and setting. In cells and extracts the contact can be indirect. Some results given as binding are weak or reduced against the parent protein; the word gives no strength. For part of these data: Tags and fused reporters may be left off the sequences shown.

Experiment [1] addresses T1, Recombinant mouse Gpnmb lacking signal peptide tagged with 3xFLAG peptides (mouse) (UniProt Q99P91).
T1 sequence: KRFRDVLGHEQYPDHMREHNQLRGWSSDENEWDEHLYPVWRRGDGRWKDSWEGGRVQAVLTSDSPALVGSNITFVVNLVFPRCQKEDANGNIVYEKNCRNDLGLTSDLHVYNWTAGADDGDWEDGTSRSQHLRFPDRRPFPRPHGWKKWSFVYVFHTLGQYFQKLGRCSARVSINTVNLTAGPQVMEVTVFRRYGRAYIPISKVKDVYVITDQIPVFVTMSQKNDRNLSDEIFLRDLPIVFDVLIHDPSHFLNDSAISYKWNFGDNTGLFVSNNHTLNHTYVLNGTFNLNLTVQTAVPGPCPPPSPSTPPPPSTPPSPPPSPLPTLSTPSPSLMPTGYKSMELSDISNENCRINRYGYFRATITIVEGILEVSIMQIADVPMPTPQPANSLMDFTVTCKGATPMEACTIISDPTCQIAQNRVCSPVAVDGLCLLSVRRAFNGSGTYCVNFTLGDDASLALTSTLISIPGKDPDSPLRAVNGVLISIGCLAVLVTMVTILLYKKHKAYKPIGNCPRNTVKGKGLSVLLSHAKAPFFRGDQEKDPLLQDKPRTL
Kind of experiment: co-IP; LI90 cells transfected with p3xFLAG-mGpnmb; precipitated with anti-FLAG M2 affinity resin, blotted with anti-calnexin antibody.

Experiment [2] addresses T2, calnexin (mouse tissues) (mouse (endogenous in mouse liver and adipose stromal vascular fractions)) (UniProt P35564).
T2 sequence: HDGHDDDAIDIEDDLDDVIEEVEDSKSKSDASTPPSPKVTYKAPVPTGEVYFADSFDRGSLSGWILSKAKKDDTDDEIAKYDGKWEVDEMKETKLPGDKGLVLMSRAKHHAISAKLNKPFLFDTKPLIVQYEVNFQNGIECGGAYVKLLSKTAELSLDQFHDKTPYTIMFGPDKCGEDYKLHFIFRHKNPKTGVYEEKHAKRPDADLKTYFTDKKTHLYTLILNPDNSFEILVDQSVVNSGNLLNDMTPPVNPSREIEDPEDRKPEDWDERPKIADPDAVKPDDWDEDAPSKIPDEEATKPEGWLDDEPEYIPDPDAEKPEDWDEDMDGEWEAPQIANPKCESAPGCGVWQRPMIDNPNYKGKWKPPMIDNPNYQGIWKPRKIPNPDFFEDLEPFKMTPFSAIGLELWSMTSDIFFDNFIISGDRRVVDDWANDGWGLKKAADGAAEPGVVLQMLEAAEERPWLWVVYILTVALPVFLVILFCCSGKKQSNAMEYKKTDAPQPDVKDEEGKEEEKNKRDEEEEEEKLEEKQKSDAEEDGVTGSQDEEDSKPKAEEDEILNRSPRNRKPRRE
Kind of experiment: proximity ligation; Duolink PLA on frozen liver sections of Gpnmb Tg mice; goat anti-Gpnmb and rabbit anti-calnexin primary antibodies, PLA probes anti-goat PLUS and anti-rabbit MINUS; counterstained with anti-F4/80.

Experiment [3] has as its target T2, calnexin (mouse tissues) (mouse (endogenous in mouse liver and adipose stromal vascular fractions)). Kind of experiment: co-IP; cell lysates of stromal vascular fractions from epididymal adipose tissues; immunoprecipitated with anti-calnexin antibody, immunoblotted with anti-Gpnmb antibody.

B1: calnexin (protein, UniProt P27824 21-592)
chain: HDGHDDDVIDIEDDLDDVIEEVEDSKPDTTAPPSSPKVTYKAPVPTGEVYFADSFDRGTLSGWILSKAKKDDTDDEIAKYDGKWEVEEMKESKLPGDKGLVLMSRAKHHAISAKLNKPFLFDTKPLIVQYEVNFQNGIECGGAYVKLLSKTPELNLDQFHDKTPYTIMFGPDKCGEDYKLHFIFRHKNPKTGIYEEKHAKRPDADLKTYFTDKKTHLYTLILNPDNSFEILVDQSVVNSGNLLNDMTPPVNPSREIEDPEDRKPEDWDERPKIPDPEAVKPDDWDEDAPAKIPDEEATKPEGWLDDEPEYVPDPDAEKPEDWDEDMDGEWEAPQIANPRCESAPGCGVWQRPVIDNPNYKGKWKPPMIDNPSYQGIWKPRKIPNPDFFEDLEPFRMTPFSAIGLELWSMTSDIFFDNFIICADRRIVDDWANDGWGLKKAADGAAEPGVVGQMIEAAEERPWLWVVYILTVALPVFLVILFCCSGKKQTSGMEYKKTDAPQPDVKEEEEEKEEEKDKGDEEEEGEEKLEEKQKSDAEEDGGTVSQEEEDRKPKAEEDEILNRSPRNRKPRRE
With B1, the binding result in experiment [1] was “binds”.

B2: Gpnmb (glycoprotein nonmelanoma protein B) in aP2 promoter-driven Gpnmb transgenic mice (protein, UniProt Q99P91 23-574)
chain: T1 sequence
Regarding B2, the binding result in experiment [2] and in experiment [3] was “binds” throughout.
